Part of at least one peptide drawing is inferred or uncertain, most often the ends. Where no end group is shown, it is not given here.
Assays:
Gi2 [1] = molecular target: T1, Gi2 (Bos taurus, UniProt A7MBH9); test: GTPγS binding, TrM-peptide 14-induced Gi2 activation in phospholipid vesicles; format: biochemical, bovine; settings: 100 nM TrM-peptide 14, 0.3 nM Gi2 in vesicles; basal 0.39
T1 construct: trimeric Gi2 (i.e., Gi2 αβγ) purified from bovine brain to near homogeneity; from tissue; host or cells: bovine brain
Experimental: (§1) Materials and Methods The in vitro assays described below utilize the couplone portion of each of a number of G-coupled receptors, instead of an intact receptor molecule, as a means for activating the corresponding anticouplone or intact G-protein. […]
(§2) GTPγS binding Assay--GTPγS binding to G proteins was assayed at 37° C. in 20 mM Hepes/NaOH buffer (pH 7.4) containing 130 μM MgCl2, 110 μM EDTA and 60 nM [^35 S]GTPγS, as described previously (Okamoto et al., 1990). […] The total amount of G protein was measured as maximal GTPγS binding at room temperature, as described (Okamoto et al., Cell 67:723-730, 1991a). […] Thus, the apparent first-order rate constant for GTPγS binding (kapp), which is equal to the slope of the tangent to the GTPγS binding curve at time 0 and represents the actual GTPγS binding rate, was calculated from this equation.
Transmembrane domain-connected peptide 14 ["TrM-peptide 14"; […] […] In one of the experiments shown in FIG. 1B, 0.3 nM Gi2 reconstituted in phospholipid vesicles with 100 nM TrM-peptide 14 was exposed to various concentrations of ACGi2, and GTPγS binding was measured (.diamond-solid.). […]

Amino acid sequences for entries named in this document (tags omitted). Residues count along the entry.
UniProt A7MBH9, 2-355 limits assumed: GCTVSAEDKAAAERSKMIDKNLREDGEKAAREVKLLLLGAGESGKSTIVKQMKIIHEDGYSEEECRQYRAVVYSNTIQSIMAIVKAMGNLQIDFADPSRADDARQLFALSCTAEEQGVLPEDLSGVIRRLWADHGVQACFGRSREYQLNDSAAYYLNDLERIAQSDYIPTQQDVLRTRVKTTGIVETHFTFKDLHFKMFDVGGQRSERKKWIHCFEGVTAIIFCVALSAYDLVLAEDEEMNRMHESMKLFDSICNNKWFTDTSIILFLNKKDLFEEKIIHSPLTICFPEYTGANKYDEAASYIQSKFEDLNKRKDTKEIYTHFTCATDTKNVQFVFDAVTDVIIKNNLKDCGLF
UniProt P09471, 2-354 limits assumed: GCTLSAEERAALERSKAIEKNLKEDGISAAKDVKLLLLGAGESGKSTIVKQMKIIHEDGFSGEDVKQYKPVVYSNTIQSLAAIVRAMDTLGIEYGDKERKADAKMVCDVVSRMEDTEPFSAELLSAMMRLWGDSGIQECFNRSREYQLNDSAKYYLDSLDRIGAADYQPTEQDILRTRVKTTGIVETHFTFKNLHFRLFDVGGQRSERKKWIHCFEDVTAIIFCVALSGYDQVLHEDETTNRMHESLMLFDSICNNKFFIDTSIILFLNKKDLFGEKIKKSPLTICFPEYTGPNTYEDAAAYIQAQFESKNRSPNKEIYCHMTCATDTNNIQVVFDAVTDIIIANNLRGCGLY
UniProt P63097, 2-354 limits assumed: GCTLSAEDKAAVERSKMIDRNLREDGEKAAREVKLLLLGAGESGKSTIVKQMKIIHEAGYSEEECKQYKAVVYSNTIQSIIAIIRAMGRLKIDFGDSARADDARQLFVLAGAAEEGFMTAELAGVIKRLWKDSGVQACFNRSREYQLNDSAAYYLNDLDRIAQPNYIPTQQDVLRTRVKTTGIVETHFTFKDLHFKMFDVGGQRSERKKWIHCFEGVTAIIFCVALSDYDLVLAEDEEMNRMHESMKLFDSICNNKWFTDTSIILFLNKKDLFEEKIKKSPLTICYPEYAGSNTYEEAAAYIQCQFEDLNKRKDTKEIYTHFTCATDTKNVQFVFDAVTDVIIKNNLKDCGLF
UniProt Q3ZCA7, 2-354 limits assumed: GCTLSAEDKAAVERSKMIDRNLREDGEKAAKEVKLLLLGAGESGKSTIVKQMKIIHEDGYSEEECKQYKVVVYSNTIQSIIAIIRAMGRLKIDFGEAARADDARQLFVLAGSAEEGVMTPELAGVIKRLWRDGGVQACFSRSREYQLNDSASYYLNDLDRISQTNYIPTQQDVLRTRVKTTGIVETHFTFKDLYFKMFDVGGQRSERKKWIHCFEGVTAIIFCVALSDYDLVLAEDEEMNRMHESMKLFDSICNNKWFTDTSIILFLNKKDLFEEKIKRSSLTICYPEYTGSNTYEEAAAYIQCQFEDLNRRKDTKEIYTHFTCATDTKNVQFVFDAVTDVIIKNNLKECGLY

Gi2 [2] = molecular target: T1, Gi2; test: GTPγS binding, MIII-induced Gi2 activation; format: biochemical, bovine; settings: 1 μM MIII, 10 nM Gi2; 0% = 0.30
Experimental: as §1, §2
The MIII peptide is a Gi /Go -activator region in the third intracellular loop of the G-coupled receptor termed M4 AChR (Okamoto et al., J. Biol. Chem. 267:8342-8346, 1992). […] In the experiments illustrated in FIG. 1D, 10 nM Go (.quadrature.) or Gi2 (.diamond-solid.) was incubated with 1 μM MIII for 2 or 5 min, respectively, and GTPγS binding was measured in the same manner as in FIG. 1A. […]

Go = Go (Homo sapiens, UniProt P09471); test: GTPγS binding, MIII-induced Go activation; format: biochemical; settings: 1 μM MIII, 10 nM Go; 0% = 0.36
Experimental: (§3) GTPγS binding Assay--GTPγS binding to G proteins was assayed at 37° C. in 20 mM Hepes/NaOH buffer (pH 7.4) containing 130 μM MgCl2, 110 μM EDTA and 60 nM [^35 S]GTPγS, as described previously (Okamoto et al., 1990). GTPγS binding to polypeptides was negligible. The total amount of G protein was measured as maximal GTPγS binding at room temperature, as described (Okamoto et al., Cell 67:723-730, 1991a). [^35 S]GTPγS was purchased from DuPont-New England Nuclear. Binding of GTPγS to G proteins obeyed first-order kinetics according to the equation ln[(BT-B)/BT]=-kapp t, where B is the binding at time t and BT is the total binding observable at an infinite time. Thus, the apparent first-order rate constant for GTPγS binding (kapp), which is equal to the slope of the tangent to the GTPγS binding curve at time 0 and represents the actual GTPγS binding rate, was calculated from this equation.
The MIII peptide is a Gi /Go -activator region in the third intracellular loop of the G-coupled receptor termed M4 AChR (Okamoto et al., J. Biol. Chem. 267:8342-8346, 1992). This peptide has the sequence RNQVRKKRQMAARERKVTR (SEQ ID NO: 30). In the experiments illustrated in FIG. 1D, 10 nM Go (.quadrature.) or Gi2 (.diamond-solid.) was incubated with 1 μM MIII for 2 or 5 min, respectively, and GTPγS binding was measured in the same manner as in FIG. 1A. The fractional GTPγS binding to Go at 0% and 100% was 0.36 and 0.86 (2 min^-1) respectively, and that to Gi2 at 0% and 100% was 0.30 and 0.96 (5 min^-1), respectively. […] ACGi2 can therefore inhibit Gi2 activation caused by the effector peptides of m4 AChR and IGF-IIR with similar potencies. […] This provides strong evidence that ACGi2 acts on G proteins rather than on receptor peptides.

Gi1 = Gi1 (Bos taurus, UniProt P63097); test: GTPγS binding, peptide 14-induced Gi1 activation; format: biochemical; settings: 30 μM peptide 14, 10 nM Gi1; 0% = 0.38
Experimental: as §3
(§4) Peptide 14 is capable of activating Gi1 and Gi3 as well as Gi2 (Okamoto et al., 1990). The effect of ACGi2 on peptide 14-induced activation of these Gi proteins was examined as follows: 10 nM Gi1 (.quadrature.) or Gi3 (.diamond-solid.) was incubated with 30 μM peptide 14 in the presence of various concentrations of ACGi2 for 4 min, and GTPβS binding was measured. The fractional GTPγS binding to Gi1 or Gi3 at 0% was (in 4 min^-1) 0.38 or 0.30, and that at 100% was 0.54 or 0.63, respectively.

Gi2 [3] = molecular target: T1, Gi2; test: GTPγS binding assay, peptide 14-induced Gi2 activation; format: biochemical, bovine
Experimental: Materials and Methods The in vitro assays described below utilize the couplone portion of each of a number of G-coupled receptors, instead of an intact receptor molecule, as a means for activating the corresponding anticouplone or intact G-protein. Except as noted below, Gi2 used in this study was trimeric Gi2 (i.e., Gi2 αβγ) purified from bovine brain to near homogeneity (Katada et al., FEBS Lett. 213:353-358 (1987), stored in buffer A (20 mM hepes/NaOH (pH 7.4), 1 mM EDTA, and 0.7% CHAPS), and diluted≥10 fold for assays. The Gi2 used for the reconstitution experiment was trimeric Gi2 purified from bovine spleen to homogeneity and dissolved in buffer B (Morishita et al., 1989). Gi3 α (Morishita et al., Biochem. Biophys. Res. Commun. 172:249-255 (1990), was purified from bovine spleen and used in combination with 1.5-fold concentrated Gβγ (Katada et al., 1987). This preparation of Gi3 α was 10-20% contaminated by Gi1 α, but not by other G proteins. Trimeric Gs and Gβγ purified from bovine brain to near homogeneity (Katada et al., 1987) were also stored in buffer A.
as §3
In the experiment illustrated in FIG. 1A, 10 nM Gi2 was incubated with 30 μM peptide 14 (RVGLVRGEKARKGK; SEQ ID NO: 27), the couplone portion of the IGF-II receptor, in the presence of various concentrations of (.quadrature.) ACGi2 (DAVTDVIIKNNLKDC; SEQ ID NO: 3), (567 ) the control Gi2 α Glu297-Asp310 peptide (EAASYIQSKFEKLN; SEQ ID NO: 18), or (.diamond.) the control Gi2 α Lys346-Phe355 peptide (KNNLKDCGLF; SEQ ID NO: 19) for 5 min under the GTPγS binding assay conditions described above, and GTPγS binding to G proteins was measured. The effect of ACGi2 on Gi2 in the absence of peptide 14 is indicated by .box-solid.. Percent stimulation of GTPγS binding was calculated by subtracting the basal fractional binding and dividing by the stimulated fractional binding observed in the absence of ACGi2. The basal fractional binding (=0%) was 0.39 mol GTPγS binding/mol Gi /5 min (5 min^-1). The 100% increase represents the GTPγS binding of 0.85 (5 min^-1). Values in all figures represent the mean ±S.E. of three experiments.
To verify the notion that ACGi2 acts on Gi2 itself, and not on receptor sequences, two series of experiments were performed. First, the dose-response curve for peptide 14 action on Gi2 in the presence of various concentrations of ACGi2 was generated (FIG. 2A). Following incubation of 10 nM Gi2 with various concentrations of peptide 14 in the absence (.quadrature.) or presence of 10 μM (.diamond-solid.) or 30 μM (.box-solid.) ACGi2 for 5 min, GTPγS binding was assayed; fractional GTPγS binding to Gi2 is indicated in the figure.
The second series of experiments investigated the effect of ACGi2 on lower concentrations of Gi2 that had been activated by peptide 14 to the same extent (FIG. 2B). 1 nM Gi2 was incubated for 5 min with 3 μM peptide 14 in the presence of various concentrations of ACGi2, and GTPγS binding was measured. The fractional GTPγS binding at 0% and 100% in this experiment was 0.40 and 0.55 (5 min^-1), respectively. […]

Gi3 = molecular target: T2, Gi3 (Bos taurus, UniProt Q3ZCA7); test: GTPγS binding, peptide 14-induced Gi3 activation; format: biochemical, bovine; settings: 30 μM peptide 14, 10 nM Gi3; 0% = 0.30
T2 construct: was purified from bovine spleen and used in combination with 1.5-fold concentrated Gβγ; from tissue; host or cells: bovine spleen (Gi3 α); bovine brain (Gβγ)
Experimental: as §1, §2
as §4, with “The fractional GTPγS binding to Gi1 or Gi3 at 0% was (in 4 min^-1) 0.38 or 0.30, and that at 100% was 0.54 or 0.63, respectively.” left out

LTACLLTLLLYRVGLVRGEKARKGK [TrM-peptide 14, reference compound]
fractional GTPγS binding to Gi2, 100% binding level (Gi2 [1]): 0.88 5 min^-1

RNQVRKKRQMAARERKVTR [MIII, RNQVRKKRQMAARERKVTR, reference compound]
fractional GTPγS binding to Gi2 at 100% (Gi2 [2]): 0.96 5 min^-1
fractional GTPγS binding to Go at 100% (Go): 0.86 2 min^-1

RVGLVRGEKARKGK [peptide 14, RVGLVRGEKARKGK, reference compound]
fractional GTPγS binding to Gi1 at 100% (Gi1): 0.54 4 min^-1
fractional GTPγS binding to Gi2 at 100% (Gi2 [3]; 3 μM peptide 14, 1 nM Gi2, 0% = 0.40): 0.55 5 min^-1
stimulated fractional GTPγS binding to Gi2 (100%) (Gi2 [3]; 30 μM peptide 14, 10 nM Gi2, basal 0.39): 0.85 5 min^-1
fractional GTPγS binding to Gi3 at 100% (Gi3): 0.63 4 min^-1
